Reference: article PMC3737538
These are yes or no findings as the source states them, for the method shown. In cells and extracts the contact can be indirect. Some binding calls cover weakened binding; strength is not graded here.

The chains behind the UniProt entries cited, without tags or fusion partners.
UniProt F6VAN0: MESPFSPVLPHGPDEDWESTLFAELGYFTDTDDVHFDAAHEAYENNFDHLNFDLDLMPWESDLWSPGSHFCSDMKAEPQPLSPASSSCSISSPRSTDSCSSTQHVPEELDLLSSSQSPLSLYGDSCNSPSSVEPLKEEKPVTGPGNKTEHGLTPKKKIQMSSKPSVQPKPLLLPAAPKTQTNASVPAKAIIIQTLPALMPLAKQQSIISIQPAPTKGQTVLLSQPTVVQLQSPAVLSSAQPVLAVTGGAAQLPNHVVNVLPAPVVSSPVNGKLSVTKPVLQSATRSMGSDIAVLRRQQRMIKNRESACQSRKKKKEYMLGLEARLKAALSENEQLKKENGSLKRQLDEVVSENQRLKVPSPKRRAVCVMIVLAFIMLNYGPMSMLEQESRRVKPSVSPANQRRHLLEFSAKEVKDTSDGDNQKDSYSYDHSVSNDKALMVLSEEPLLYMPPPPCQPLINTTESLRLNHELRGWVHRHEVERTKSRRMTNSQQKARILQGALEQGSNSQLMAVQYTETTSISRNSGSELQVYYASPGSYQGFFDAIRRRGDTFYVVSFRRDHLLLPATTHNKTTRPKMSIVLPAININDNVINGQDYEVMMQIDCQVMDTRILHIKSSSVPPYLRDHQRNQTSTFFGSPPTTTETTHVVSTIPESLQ

Legend:
[1] = target: activating transcription factor 6α (mouse (endogenous in AML12)) (UniProt F6VAN0); assay: co-IP; AML12 cells treated with DMSO or Tm (5 µg/ml) for 12 h, immunoprecipitation with the indicated antibodies and western blot; antibodies at 1:200 for immunoprecipitation
[2] = target: T1, Orphan nuclear receptor ERRγ (mouse (endogenous in AML12)) (UniProt P62509); assay: as above
T1 sequence: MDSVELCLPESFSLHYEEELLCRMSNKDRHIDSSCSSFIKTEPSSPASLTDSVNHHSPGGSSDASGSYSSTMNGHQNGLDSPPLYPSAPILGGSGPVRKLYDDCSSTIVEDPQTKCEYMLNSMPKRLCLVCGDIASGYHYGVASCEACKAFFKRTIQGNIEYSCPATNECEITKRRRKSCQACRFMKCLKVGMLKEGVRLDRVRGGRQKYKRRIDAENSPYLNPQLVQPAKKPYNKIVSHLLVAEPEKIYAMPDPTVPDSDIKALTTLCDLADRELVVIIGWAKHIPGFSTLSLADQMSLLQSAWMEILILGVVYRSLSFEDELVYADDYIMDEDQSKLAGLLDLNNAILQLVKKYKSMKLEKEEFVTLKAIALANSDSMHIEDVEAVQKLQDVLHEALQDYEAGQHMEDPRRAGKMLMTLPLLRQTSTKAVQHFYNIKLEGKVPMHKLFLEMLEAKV

B1: peroxisome proliferator-activated receptor gamma coactivator 1-α (protein, UniProt O70343 1-797)
chain: MAWDMCSQDSVWSDIECAALVGEDQPLCPDLPELDLSELDVNDLDTDSFLGGLKWCSDQSEIISNQYNNEPANIFEKIDEENEANLLAVLTETLDSLPVDEDGLPSFDALTDGAVTTDNEASPSSMPDGTPPPQEAEEPSLLKKLLLAPANTQLSYNECSGLSTQNHAANHTHRIRTNPAIVKTENSWSNKAKSICQQQKPQRRPCSELLKYLTTNDDPPHTKPTENRNSSRDKCASKKKSHTQPQSQHAQAKPTTLSLPLTPESPNDPKGSPFENKTIERTLSVELSGTAGLTPPTTPPHKANQDNPFKASPKLKPSCKTVVPPPTKRARYSECSGTQGSHSTKKGPEQSELYAQLSKSSGLSRGHEERKTKRPSLRLFGDHDYCQSLNSKTDILINISQELQDSRQLDFKDASCDWQGHICSSTDSGQCYLRETLEASKQVSPCSTRKQLQDQEIRAELNKHFGHPCQAVFDDKSDKTSELRDGDFSNEQFSKLPVFINSGLAMDGLFDDSEDESDKLSYPWDGTQPYSLFDVSPSCSSFNSPCRDSVSPPKSLFSQRPQRMRSRSRSFSRHRSCSRSPYSRSRSRSPGSRSSSRSCYYYESSHYRHRTHRNSPLYVRSRSRSPYSRRPRYDSYEAYEHERLKRDEYRKEHEKRESERAKQRERQKQKAIEERRVIYVGKIRPDTTRTELRDRFEVFGEIEECTVNLRDDGDSYGFITYRYTCDAFAALENGYTLRRSNETDFELYFCGRKQFFKSNYADLDTNSDDFDPASTKSKYDSLDFDSLLKEAQRSLRR
B1 was tested, and the binding [1] was “binds” and the binding [2] was “binds”.
